Assay results reported in PubChem BioAssay AID2685 (National Center for Advancing Translational Sciences (NCATS), 2010).
Hit rate of the full screen: of about 320,000 compounds, about 2,100 (0.66%) were called active. Inconclusive means that the source gave no clear call. Such entries were picked first, then a sample of the others. Calls follow the shape of the dose curve; as a rule, active = well fitted inhibition curve with a large enough effect in the signal ratio, with a control signal flat (not every such curve was filed as active); inconclusive = small, poorly fitted or top-dose-only effect, or effect the other way, or a change in a side signal; inactive = flat fitted curve, though single readings scatter; the % refers to the signal ratio. Where the call is inconclusive, the potency comes from a doubtful curve fit.

test: qHTS Assay for Lipid Storage Modulators in Drosophila S3 Cells; details: BODIPY lipid droplet fluorescence, 18-24 h, cells fed with added oleic acid; lipid storage change, negative = inhibition: at 46.1 µM (top of the series) unless noted
Summary of the method: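 Drosophila S3 cells loaded with oleic acid (400 uM, as added) and compounds at several concentrations; lipid droplets imaged by 488-nm laser-scanning cytometry, 500–530 nm intensity and object ratio to cell channel. Percent activity normalized to 20 uM Triacsin C.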
% is scaled to controls: 0 for no effect and ±100 for the full control effect; potency is read from the fitted curve at half-maximal effect.

Compound	lipid storage change, negative = inhibition	Potency
CC(=O)C[C@@H](O)CC(=O)[C@H]1OC(=O)CC/C=C\Cc2ccccc21	inconclusive: 120%	
COc1ccc(C(=O)Nc2ccc(S(=O)(=O)N3CCOCC3)cc2)cc1OC	inconclusive: -0.115%	
Cn1nnc(C(O)CN2CCOCC2)n1 (stereo not drawn)	inconclusive: -175%	
CC1CCN(C(=O)Cn2c3ccccc3c3nc4n(c(=O)c32)CCS4)CC1		inconclusive: 6.51 µM [falling, single point]
Cc1ccnc(Nc2nc(-c3ccc(Cl)cc3)cs2)c1	inconclusive: 18.7%	
Cc1ccc2nc3n(c(=O)c2c1)CCC3	inconclusive: 35.7%	
O=S(=O)(c1ccc(-c2ccccc2)cc1)N1CCCCC1	inactive	
CC(C)(C)OC(=O)CNC(=O)c1[nH]cnc1C(=O)NCCCCCN		inconclusive: 0.13 µM [activator, full curve, poor fit]
CCOC(=O)C1=C(C)N=c2s/c(=C/c3cccc(OCC(=O)O)c3)c(=O)n2C1c1ccc(F)cc1 (stereo not drawn)	inconclusive: -24.6%	
Cc1ccc(NC(=O)c2sccc2C)cc1S(=O)(=O)N(C)C	inconclusive: 10.7%	
CCCCn1c(N)c(N(CC(C)C)C(=O)C2CC(=O)N(Cc3ccccc3)C2)c(=O)[nH]c1=O (stereo not drawn)	inconclusive	
CCOC(=O)c1c(NC(=O)CSc2nnc(-c3ccc(C)cc3)o2)sc(C(C)=O)c1C	inconclusive: -18.9%	
CCN1CCN(Cc2ccc(NC(=O)c3cc(NC(=O)c4cnnc5ccccc45)cc(OC)c3)cc2C(F)(F)F)CC1	inconclusive: 12.6%	
Nc1c(N2CCCC2)cc(Cl)c2nonc12		inconclusive: 0.0058 µM [falling, full curve, poor fit]
O=C(NS(=O)(=O)c1ccccc1[N+](=O)[O-])c1ccccc1	inconclusive: 45.1%	
Cc1cccc(C)c1NC(=O)CN1CCN(C(=O)C2CCC2)CC1	inconclusive	
O=C(NCC1COc2ccccc2O1)c1ccc(NC(=O)c2ccco2)cc1 (stereo not drawn)		inconclusive: 1.64 µM [activator, partial curve]
O=C(O)c1cccc(NC(=S)N/N=C/c2cccnc2)c1	inconclusive: -0.865%	
CCOC(=O)Cc1csc(NC(=O)c2cccs2)n1		inconclusive: 29.1 µM [activator, single point]
CN(CC(=O)Nc1cccc(F)c1)C(=O)c1cn(-c2ccccc2)nc1-c1ccc(F)cc1	inconclusive: -53.6%	
Cc1ccc2nc(SCc3nc4ccccc4c(=O)[nH]3)[nH]c2c1	inconclusive: 10.8%	
Cc1ccc([N+](=O)[O-])c2c1C(N1CCCC1)C(C)(C)O2 (stereo not drawn)	inconclusive: 25.1%	
Cc1nc2c(=O)oc3ccccc3c2n1-c1ccccc1		inconclusive: 6.51 µM [activator, single point]
CCOC(=O)c1cccc(NS(=O)(=O)Cc2ccccc2)c1	inactive	
Cc1c(NC(=O)CSc2nnnn2-c2ccc(F)cc2)c(=O)n(-c2ccccc2)n1C	inconclusive: 25.5% [at 9.22 µM]	
CN1CCNC(=O)C1CC(=O)NCCc1ccccc1F (stereo not drawn)	inconclusive: -18.7%	

Compound	lipid storage change, negative = inhibition	Potency
Fc1ccc(-n2c(-c3ccc4c(c3)OCO4)n[nH]c2=S)cc1Cl	inconclusive: 13.8%	
CC(=O)Nc1nc(C)c(-c2csc(Nc3cccc(C(C)=O)c3)n2)s1		inconclusive: 13 µM [falling, partial curve]
CC(OC(=O)[C@H](C)NC(=O)c1ccccc1Cl)C(=O)NCc1ccc2c(c1)OCO2 (stereo partly drawn)	inconclusive	
CCOC(=O)c1cc(C(=O)Nc2sc3c(c2C#N)CCCC3)nn1C	inconclusive: 106%	
CC1CC(C)(C)NC(=S)N1CC(=O)N1CCN(Cc2ccccc2)CC1 (stereo not drawn)	inconclusive: -69.6%	
CC(C)Cn1c(N)c(C(=O)COC(=O)[C@@H]2CCCN2C(=O)c2cccs2)c(=O)n(C)c1=O	inconclusive: 56.5%	
C/C(=C/c1ccccc1)C(=O)N1CCN(c2ccc(F)cc2)CC1		inconclusive: 29.1 µM [activator, single point]
Clc1ccc(CO/N=C/c2c(-c3ccccc3)nc3n2CCS3)c(Cl)c1	inconclusive: 12.2%	
Cc1nonc1NC(=O)CSc1nc(C23CC4CC(CC(C4)C2)C3)nc2ccccc12		inconclusive: 0.411 µM [activator, full curve, poor fit]
Fc1ccc(CSc2nc3ccccc3[nH]2)c2ccccc12	inconclusive: -0.503%	
CN(C)C(=O)c1ccc(Nc2ncnc3sc4c(c23)CCCCC4)cc1	inconclusive: -19.7%	
COc1ccc(C(=O)Nc2ccc3nc(N4CCOCC4)sc3c2)cc1OC	inconclusive: -15.4%	
Cc1ccc(-n2nc3c(=O)n(C(C)C(=O)NCc4ccco4)nc(C)c3c2C)cc1 (stereo not drawn)	inconclusive: -193%	
Cc1ccc(N2CC(C(=O)Nc3ccc(S(=O)(=O)Nc4nccs4)cc3)CC2=O)cc1C (stereo not drawn)	inconclusive: 138%	
CCc1nnc(NC(=O)CSc2nnc(Cc3ccc(OC)cc3)o2)s1		inconclusive: 6.51 µM [activator, partial curve]
CN1CCN(CCCNC(=O)c2ccc(/C=C3\Sc4ccccc4N(Cc4ccc(F)cc4)C3=O)cc2)CC1	inconclusive: -12.4%	
COc1ccccc1-n1c(SCC(=O)NC2CCS(=O)(=O)C2)nc2ccccc2c1=O (stereo not drawn)	inconclusive: 52.2%	
O=c1c2ccccc2nnn1CSc1nnc(C2COc3ccccc3O2)n1-c1ccccc1 (stereo not drawn)	inconclusive: 31.2%	
CCCN(CC(=O)Nc1ccccc1C)C(=O)c1ccc(-c2ccccc2)cc1		inconclusive: 2.91 µM [falling, full curve]
CCOC(=O)Cn1c2c(c(=N)c3ccccc31)CCC2	inconclusive: 17.4%	
O=C(c1ccc(Cl)cc1)N(Cc1ccco1)C1CCS(=O)(=O)C1 (stereo not drawn)	inconclusive: 16%	
O=C(O)C1C2CCC(O2)C1C(=O)NCCC1=CCCCC1 (stereo not drawn)	inconclusive: -122%	
N/C(=N\OC(=O)CCCc1ccccc1)c1ccc(Br)cc1	inconclusive: 8.51%	
Cc1cc(-c2ccc(C(C)C)c(S(=O)(=O)N3CC(=O)Nc4ccccc43)c2)on1	inconclusive: -13.6%	
CCOC(=O)C1C(c2ccccc2O)NC(=O)NC1(O)C(F)(F)F (stereo not drawn)		inconclusive: 29.1 µM [falling, single point]
COC(=O)c1ccc(NC(=O)c2cccc(N3C(=O)CCC3=O)c2)cc1	inconclusive	

Single entries from the entries so far:
Under lipid storage change, negative = inhibition, Cn1nnc(C(O)CN2CCOCC2)n1 (stereo not drawn) reads inconclusive: -175%
Under lipid storage change, negative = inhibition, Cc1ccc(N2CC(C(=O)Nc3ccc(S(=O)(=O)Nc4nccs4)cc3)CC2=O)cc1C (stereo not drawn) reads inconclusive: 138%
Under lipid storage change, negative = inhibition, CN(CC(=O)Nc1cccc(F)c1)C(=O)c1cn(-c2ccccc2)nc1-c1ccc(F)cc1 reads inconclusive: -53.6%

More structures

Compound	lipid storage change, negative = inhibition	Potency
O=C(COC(=O)CCc1ccc(S(=O)(=O)N2CCOCC2)cc1)NC(=O)NC1CCCCC1	inconclusive: -17.4%	
Cc1onc(-c2ccccc2Cl)c1C(=O)NC(=S)NCCc1ccccc1	inconclusive: 18.4%	
CCC(C)NC(=O)C1=CCN(S(=O)(=O)c2ccc(C)cc2)CC1 (stereo not drawn)	inconclusive: -8.93%	
Cc1onc(-c2ccccc2Cl)c1C(=O)Nc1ccccc1O		inconclusive: 6.51 µM [falling, single point]
O=C(COC(=O)/C=C/c1ccc(S(=O)(=O)N2CCc3ccccc32)cc1)NC1CCS(=O)(=O)C1 (stereo not drawn)	inconclusive: 24.6% [at 9.22 µM]	
CC(NC(=O)CNC(=O)c1sc2ccccc2c1Cl)c1cccnc1 (stereo not drawn)	inconclusive: -170%	
CCC(C)n1c(S(=O)(=O)O)nc2ccccc21 (stereo not drawn)		inconclusive: 0.651 µM [cytotoxic, full curve]
COc1ccc(N(CC(=O)NCc2ccccc2OC)S(=O)(=O)c2c(C)nn(C)c2C)cc1	inactive: 22.2% [at 9.22 µM]	
Oc1ccc(/C=N/n2cc(-c3ccccc3)[nH]c2=S)cc1		inconclusive: 29.1 µM [rising, single point]
CCCCc1c(C)[nH]c(C(=O)OCC)c1C	inconclusive: -60.8%	
C/C(=N\NC(=O)c1ccncc1)c1cc2ccccc2oc1=O	inconclusive: 19.2%	
O=C(N/N=C/c1ccc(F)cc1)c1sccc1OCc1ccc(F)cc1	inconclusive: 30.6%	
COc1ccc(-c2cc(C(=O)NC(C)c3ccccn3)c3ccccc3n2)cc1OC (stereo not drawn)	inconclusive: -11.2%	
O=C(CNc1ccc2c(c1)OCO2)N/N=C\c1ccccc1Cl		inconclusive: 4.61 µM [activator, full curve]
O=C1c2ccc3c4c(ccc(c24)C(=O)N1c1cccc(O)c1)CC3	inconclusive: -6.32%	
CN(C)C(=O)CN1C(=O)NC2(CCc3ccccc32)C1=O (stereo not drawn)	inconclusive: 13%	
CCOC(=O)CC(=O)CSc1nnc(Cn2c(=O)sc3ccccc32)n1C	inconclusive: -13.6%	
O=C(COC(=O)c1ccccn1)Nc1nc(-c2ccccc2)cs1	inconclusive: 27.1%	
CCN(CC(=O)Nc1ccc(OC)cc1)CC(=O)Nc1ccc(Cl)cc1F		inconclusive: 0.517 µM [activator, single point]
CC(=O)c1ccc(OCC(C)C)c(CC(C(N)=O)C(N)=O)c1		inconclusive: 3.66 µM [falling, single point]
CCOC(=O)C1CCCN(C(=O)c2ccco2)C1 (stereo not drawn)	inconclusive: -42.5%	
Cc1cc(C)c2c(-n3cccc3)c(C(=O)NNS(=O)(=O)c3ccc(Cl)cc3)sc2n1	inconclusive: 34.1%	
Cc1ccccc1N=C/C=C1\N(C)c2ccccc2C1(C)C		inconclusive: 29.1 µM [falling, single point]
Cc1cccc2c1N(CC(=O)OC(C)C)C(=O)C2=O	inconclusive: 4.65%	
CNc1ccc2nnc(C(F)(F)C(F)(F)C(F)(F)F)n2n1	inconclusive: 37.8%	
C(=N\Nc1ccc2nncn2n1)/c1ccccn1		inconclusive: 0.184 µM [cytotoxic, full curve]
